# The list does not hold the whole screen: it is rich in T/C values a quarter to a half above the control, in often repeated tests (any T/C) and in doses without a T/C. Further doses and runs are listed elsewhere. T/C gives the treated animals as a percentage of the vehicle group. Some entries give survivors of the animals treated and no T/C: the source files T/C as zero there, which appears to mark a toxic dose or a test without result, not a measured value. Some doses without a T/C left all or most animals alive at the check, yet need not have been tolerated: the source hardly ever lists a survival T/C far under the control, and the zero likely stands for such cases as well. Survivors were counted at the toxicity check, usually on the fifth day, unless a day is given; later deaths do not show. Schedules are NCI's codes, taken here to give the interval after Q, in days (D) or hours (H), and the number of doses after X. Some entries were tested several times; their values stand side by side, smallest first. For survival time, the PubChem record calls one and a half times the control and up active, and a quarter to a half above the control has no call in these data; cut-offs in other NCI protocols can differ. Some T/C values carry the count of animals alive at the toxicity check (mostly the fifth day); without a count, all were alive then.
# Test system: CD2F1 mice, L1210 leukemia ip, survival T/C
# Test: NCI In Vivo Anticancer Drug Screen. Data for tumor model L1210 Leukemia (intraperitoneal) in CD2F1 (CDF1) mice
# Conditions: higher T/C = longer survival
# Summary of the method: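 Compound-dosed mice with transplantable tumor versus matched vehicle controls; endpoint ratio T/C reported.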
# [1] = T/C endpoint: mean survival time, dose: 100.0 mg/kg/injection, schedule: Q04DX003 (ip), vehicle: saline with Tween-80
# [2] = T/C endpoint: mean survival time, dose: 200.0 mg/kg/injection, schedule: Q04DX003 (ip), vehicle: saline with Tween-80
# [3] = T/C endpoint: mean survival time, dose: 400.0 mg/kg/injection, schedule: Q04DX003 (ip), vehicle: saline with Tween-80
# [4] = T/C endpoint: mean survival time, dose: 200.0 mg/kg/injection, schedule: Q01DX009 (ip), vehicle: other
# [5] = T/C endpoint: mean survival time, dose: 200.0 mg/kg/injection, schedule: Q01DX009 (ip), vehicle: saline
# [6] = T/C endpoint: mean survival time, dose: 400.0 mg/kg/injection, schedule: Q01DX009 (ip), vehicle: saline
# [7] = T/C endpoint: mean survival time, dose: 400.0 mg/kg/injection, schedule: Q04DX002 (ip), vehicle: saline with Tween-80
# [8] = T/C endpoint: mean survival time, dose: 100.0 mg/kg/injection, schedule: Q04DX002 (ip), vehicle: saline with Tween-80
# [9] = T/C endpoint: mean survival time, dose: 100.0 mg/kg/injection, schedule: Q01DX009 (ip), vehicle: saline with Tween-80
# [10] = T/C endpoint: mean survival time, dose: 200.0 mg/kg/injection, schedule: Q01DX001 (ip), vehicle: saline with Tween-80
# [11] = T/C endpoint: mean survival time, dose: 400.0 mg/kg/injection, schedule: Q01DX001 (ip), vehicle: saline with Tween-80
# [12] = T/C endpoint: mean survival time, dose: 200.0 mg/kg/injection, schedule: Q01DX009 (ip), vehicle: saline with Tween-80
# [13] = T/C endpoint: mean survival time, dose: 400.0 mg/kg/injection, schedule: Q04DX002 (ip), vehicle: saline
smiles,measurement,setting,value
COc1c(O)c2c(c3cc(C(=O)N4CCc5c4c(O)c(OC)c4[nH]c(C(=O)N6CC7CC78C6=CC(=O)c6[nH]cc(C)c68)cc54)[nH]c13)CCN2C(N)=O (stereo not given),T/C,"T/C endpoint: mean survival time, dose: 3.0 micrograms/kg/injection, schedule: Q01DX009 (ip), vehicle: other",138 % of control
same,T/C,"T/C endpoint: mean survival time, dose: 3.0 micrograms/kg/injection, schedule: Q04DX003 (ip), vehicle: other",128 % of control
same,T/C,"T/C endpoint: mean survival time, dose: 10.0 micrograms/kg/injection, schedule: Q01DX009 (ip), vehicle: other",136 % of control
same,T/C,"T/C endpoint: mean survival time, dose: 10.0 micrograms/kg/injection, schedule: Q04DX003 (ip), vehicle: other",144 % of control
same,T/C,"T/C endpoint: mean survival time, dose: 11.0 micrograms/kg/injection, schedule: Q01DX009 (ip), vehicle: other",130 % of control
same,T/C,"T/C endpoint: mean survival time, dose: 15.0 micrograms/kg/injection, schedule: Q04DX003 (ip), vehicle: other",125 % of control
same,T/C,"T/C endpoint: mean survival time, dose: 16.6 micrograms/kg/injection, schedule: Q01DX009 (ip), vehicle: other",131 % of control
same,T/C,"T/C endpoint: mean survival time, dose: 25.0 micrograms/kg/injection, schedule: Q01DX009 (ip), vehicle: other",133 % of control
same,T/C,"T/C endpoint: mean survival time, dose: 30.0 micrograms/kg/injection, schedule: Q04DX003 (ip), vehicle: other",134 % of control
same,T/C,"T/C endpoint: mean survival time, dose: 37.5 micrograms/kg/injection, schedule: Q01DX009 (ip), vehicle: other",137 % of control
same,T/C,"T/C endpoint: mean survival time, dose: 56.3 micrograms/kg/injection, schedule: Q01DX009 (ip), vehicle: other",131 % of control
same,T/C,"T/C endpoint: mean survival time, dose: 88.0 micrograms/kg/injection, schedule: Q01DX001 (ip), vehicle: other",125 % of control
same,survivor count,"T/C endpoint: mean survival time, dose: 100.0 micrograms/kg/injection, schedule: Q01DX009 (ip), vehicle: other",3 of 6
same,T/C,"T/C endpoint: mean survival time, dose: 133.0 micrograms/kg/injection, schedule: Q01DX001 (ip), vehicle: other",131 % of control
same,T/C,"T/C endpoint: mean survival time, dose: 200.0 micrograms/kg/injection, schedule: Q01DX001 (ip), vehicle: other",133 % of control
same,T/C,"T/C endpoint: mean survival time, dose: 300.0 micrograms/kg/injection, schedule: Q01DX001 (ip), vehicle: other",148 % of control
same,survivor count,"T/C endpoint: mean survival time, dose: 300.0 micrograms/kg/injection, schedule: Q04DX003 (ip), vehicle: other",1 of 6
same,T/C,"T/C endpoint: mean survival time, dose: 450.0 micrograms/kg/injection, schedule: Q01DX001 (ip), vehicle: other",143 % of control
C=C1C(=O)OC2/C=C(\C)CC/C=C(/C=O)C(OC(=O)C(C)C)C(O)C12 (stereo not given),survivor count,"T/C endpoint: mean survival time, dose: 16.0 mg/kg/injection, schedule: Q01DX009 (ip), vehicle: saline with Tween-80",1 of 6
O=C(CCN1CCCCC1)c1ccccc1,survivor count,[1],0 of 6
same,survivor count,[2],0 of 6
same,survivor count,[3],0 of 6
COc1ccc2nc3cc(Cl)ccc3c(Nc3ccc(NC(C)=O)cc3)c2n1,survivor count,[4],3 of 6
same,survivor count,"T/C endpoint: mean survival time, dose: 400.0 mg/kg/injection, schedule: Q01DX009 (ip), vehicle: other",2 of 6
CC(Oc1ccc(Cl)cc1)C(/C=N/N=C(N)N)=N/N=C(N)N (stereo not given),survivor count,"T/C endpoint: mean survival time, dose: 50.0 mg/kg/injection, schedule: Q01DX009 (ip), vehicle: saline",6 of 6
same,survivor count,"T/C endpoint: mean survival time, dose: 100.0 mg/kg/injection, schedule: Q01DX009 (ip), vehicle: saline",0 of 6
same,survivor count,[5],0 of 6
same,survivor count,[6],0 of 6
CCN(CC)C(=O)Nc1ccc(Cl)cc1,survivor count,[7],2 of 3
O=C1CCC(C(=O)Nc2ccc(Cl)cc2Cl)N1 (stereo not given),survivor count,[8],3 of 3
CCCCCCCCN1C(=O)CCC1=O,survivor count,[7],0 of 3
COc1ccc(C=NCCN=Cc2ccc(OC)cc2OC)c(OC)c1,survivor count,[1],6 of 6
same,survivor count,[2],6 of 6
same,survivor count,[3],6 of 6
SCCS,survivor count,[8],3 of 3
same,survivor count,[7],3 of 3
O=C(O)c1cccc(C(=O)O)c1C(=O)O.[NH-]C1CCCCC1[NH-].[Pt+2],T/C,"T/C endpoint: median survival time, dose: 25.0 mg/kg/injection, schedule: Q04DX003 (ip), vehicle: saline",132 % of control
same,T/C,"T/C endpoint: median survival time, dose: 50.0 mg/kg/injection, schedule: Q04DX003 (ip), vehicle: saline",137 % of control
CC(=O)Oc1ccc2ccccc2c1,survivor count,[9],2 of 6
same,survivor count,[10],0 of 6
same,survivor count,[11],0 of 6
C/C=C/c1cc2c(c(=O)o1)C(=O)[C@@H](O)[C@H](C)O2,survivor count,[12],3 of 6
CCCCCCCCCCCCCCCC(=O)Nc1ccn(C2OC(CO)C(O)C2O)c(=O)n1 (stereo not given),survivor count,[5],6 of 6
same,survivor count,"T/C endpoint: mean survival time, dose: 200.0 mg/kg/injection, schedule: Q04DX002 (ip), vehicle: saline",3 of 3
same,survivor count,[6],10 of 10 and 6 of 6
same,T/C,[13],132 % of control [5 of 6 alive]
same,survivor count,[13],3 of 3
CC(C)(O)C(Cl)S(=O)c1ccccc1 (stereo not given),survivor count,"T/C endpoint: mean survival time, dose: 126.0 mg/kg/injection, schedule: Q04DX002 (ip), vehicle: saline with Tween-80",6 of 6
CCCCCCCS(=O)CCCl (stereo not given),survivor count,[7],2 of 3
O=S(=O)(CCl)OCCCl,T/C,"T/C endpoint: mean survival time, dose: 6.25 mg/kg/injection, schedule: Q01DX009 (ip), vehicle: saline with Tween-80",137 % of control [5 of 6 alive]
same,T/C,"T/C endpoint: mean survival time, dose: 25.0 mg/kg/injection, schedule: Q01DX009 (ip), vehicle: saline with Tween-80",129 % of control
same,survivor count,"T/C endpoint: mean survival time, dose: 50.0 mg/kg/injection, schedule: Q01DX009 (ip), vehicle: saline with Tween-80",2 of 6
same,survivor count,[9],0 of 6
same,survivor count,[12],0 of 6
same,survivor count,"T/C endpoint: median survival time, dose: 50.0 mg/kg/injection, schedule: Q01DX009 (ip), vehicle: saline with Tween-80",6 of 6
same,survivor count,"T/C endpoint: median survival time, dose: 100.0 mg/kg/injection, schedule: Q01DX009 (ip), vehicle: saline with Tween-80",0 of 6
same,survivor count,"T/C endpoint: median survival time, dose: 200.0 mg/kg/injection, schedule: Q01DX009 (ip), vehicle: saline with Tween-80",0 of 10 and 0 of 6
O=C(Nc1ccc(Cl)c(Cl)c1)Nc1cc(Cl)ccc1Sc1ccc(Cl)cc1S(=O)(=O)O,survivor count,[2],2 of 6
same,survivor count,[3],1 of 6
O=C(NCC#CCN1CCCC1)Nc1cccc(Cl)c1,survivor count,[10],5 of 6
same,survivor count,[11],0 of 6
CN=NCCO,survivor count,[5],0 of 6
same,survivor count,"T/C endpoint: mean survival time, dose: 400.0 mg/kg/injection, schedule: Q01DX001 (ip), vehicle: saline",0 of 6
CCCCCCCCS.[Ni],survivor count,"T/C endpoint: mean survival time, dose: 50.0 mg/kg/injection, schedule: Q01DX009 (ip), vehicle: other",2 of 6
same,survivor count,"T/C endpoint: mean survival time, dose: 100.0 mg/kg/injection, schedule: Q01DX009 (ip), vehicle: other",0 of 6
same,survivor count,[4],0 of 6
CCOC(=O)CCl,survivor count,"T/C endpoint: mean survival time, dose: 400.0 mg/kg/injection, schedule: Q04DX003 (ip), vehicle: other",0 of 6
COCCC1(CN2c3ccccc3Sc3ccc(Cl)cc32)CCN(C)C1 (stereo not given),survivor count,"T/C endpoint: mean survival time, dose: 400.0 mg/kg/injection, schedule: Q04DX003 (ip), vehicle: saline",0 of 6
COC1OCC(O)C(NC(=O)N(C)N=O)C1O (stereo not given),T/C,"T/C endpoint: mean survival time, dose: 22.0 mg/kg/injection, schedule: Q01DX009 (ip), vehicle: saline",141 % of control
same,T/C,"T/C endpoint: mean survival time, dose: 33.0 mg/kg/injection, schedule: Q01DX009 (ip), vehicle: saline",135 % of control
C[n+]1cn(Cc2ccccc2)c2c([O-])n[nH]c(=O)c21,survivor count,"T/C endpoint: mean survival time, dose: 9.4 mg/kg/injection, schedule: Q01DX005 (ip), vehicle: other",3 of 3
same,survivor count,"T/C endpoint: mean survival time, dose: 18.8 mg/kg/injection, schedule: Q01DX005 (ip), vehicle: other",3 of 3
same,survivor count,"T/C endpoint: mean survival time, dose: 37.5 mg/kg/injection, schedule: Q01DX005 (ip), vehicle: other",3 of 3
same,survivor count,"T/C endpoint: mean survival time, dose: 75.0 mg/kg/injection, schedule: Q01DX005 (ip), vehicle: other",3 of 3
same,survivor count,"T/C endpoint: mean survival time, dose: 150.0 mg/kg/injection, schedule: Q01DX005 (ip), vehicle: other",3 of 3
